Test results as given in article PMC7290032.

Sequences of proteins named here, by UniProt entry; tags and fusion partners are left off.
UniProt P27694: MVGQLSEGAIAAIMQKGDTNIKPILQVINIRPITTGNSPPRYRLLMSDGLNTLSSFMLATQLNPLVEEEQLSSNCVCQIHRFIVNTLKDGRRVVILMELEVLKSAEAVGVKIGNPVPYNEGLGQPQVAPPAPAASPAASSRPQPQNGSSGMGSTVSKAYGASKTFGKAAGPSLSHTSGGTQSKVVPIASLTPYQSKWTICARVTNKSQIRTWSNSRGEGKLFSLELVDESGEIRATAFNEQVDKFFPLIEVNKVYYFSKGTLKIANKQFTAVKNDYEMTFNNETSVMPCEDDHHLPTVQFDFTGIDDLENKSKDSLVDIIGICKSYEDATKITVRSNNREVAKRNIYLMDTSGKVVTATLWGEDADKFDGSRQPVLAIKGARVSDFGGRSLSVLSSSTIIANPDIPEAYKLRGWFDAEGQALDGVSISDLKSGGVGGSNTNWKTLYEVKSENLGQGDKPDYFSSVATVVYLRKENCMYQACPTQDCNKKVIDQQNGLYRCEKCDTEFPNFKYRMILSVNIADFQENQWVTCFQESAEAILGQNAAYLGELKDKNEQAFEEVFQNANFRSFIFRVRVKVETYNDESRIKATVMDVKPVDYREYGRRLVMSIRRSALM
UniProt P15927: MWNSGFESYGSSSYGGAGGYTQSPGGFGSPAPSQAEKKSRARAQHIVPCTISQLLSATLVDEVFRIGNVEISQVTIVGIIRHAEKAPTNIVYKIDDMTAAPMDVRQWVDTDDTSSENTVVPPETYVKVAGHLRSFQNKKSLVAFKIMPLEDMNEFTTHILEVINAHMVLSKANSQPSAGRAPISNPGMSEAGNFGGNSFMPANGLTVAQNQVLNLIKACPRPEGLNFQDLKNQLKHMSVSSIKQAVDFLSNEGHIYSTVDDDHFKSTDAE

Assays:
MCM8IP-HA (human) = target: T1, MCM8IP-HA (human) (UniProt Q8N3J3); test: affinity purification with mass spectrometry; anti-HA immunoprecipitation from HEK293T stably expressing MCM8IP-FLAG-HA against GFP-FLAG-HA; gel slices, LC-MS/MS; at least 5-fold enriched
T1 sequence: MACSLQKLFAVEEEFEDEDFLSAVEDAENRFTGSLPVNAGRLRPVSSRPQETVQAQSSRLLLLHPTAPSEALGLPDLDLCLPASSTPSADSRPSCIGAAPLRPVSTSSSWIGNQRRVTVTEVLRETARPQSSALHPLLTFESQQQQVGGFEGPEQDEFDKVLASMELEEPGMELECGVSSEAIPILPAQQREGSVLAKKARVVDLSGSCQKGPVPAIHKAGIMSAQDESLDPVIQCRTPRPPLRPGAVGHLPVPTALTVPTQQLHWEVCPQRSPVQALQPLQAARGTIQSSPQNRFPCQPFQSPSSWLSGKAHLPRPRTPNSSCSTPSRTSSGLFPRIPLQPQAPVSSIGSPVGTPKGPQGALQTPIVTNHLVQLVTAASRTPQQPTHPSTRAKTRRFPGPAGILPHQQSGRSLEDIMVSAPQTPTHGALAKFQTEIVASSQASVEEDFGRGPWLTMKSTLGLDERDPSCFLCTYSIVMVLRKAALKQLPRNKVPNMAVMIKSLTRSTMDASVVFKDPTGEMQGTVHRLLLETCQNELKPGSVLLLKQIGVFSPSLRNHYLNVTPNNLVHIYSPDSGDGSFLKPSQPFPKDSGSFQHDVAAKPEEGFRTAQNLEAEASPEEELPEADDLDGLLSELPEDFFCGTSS

MCM8IP-BirA* (human) = target: T2, MCM8IP-BirA* (human) (UniProt Q8N3J3); test: proximity labelling; BioID with mass spectrometry: BirA*-MCM8IP or MCM8IP-BirA* against BirA* alone in HU-treated HEK293T T-REx; RIPA lysis, streptavidin beads; at least 5-fold enriched
T2 sequence: T1 sequence

BirA*-MCM8IP (human) = target: T3, BirA*-MCM8IP (human) (UniProt Q8N3J3); test: as above
T3 sequence: T1 sequence

Measured: binding

RPA1 (from UniProt P27694 1-616)
binds: all assays above

RPA2 (from UniProt P15927 1-270)
binds: all assays above

No constants are given. Whether binding was seen depends on the method and setting. Binding seen in cells or lysates may run through a third protein. Here binding means that the protein was enriched with, or labelled near, the bait; the list need not be complete. For part of these data: Sequences can lack the tags named with a protein.
